In article PMC9454942, “Novel AR/AR-V7 and Mnk1/2 Degrader, VNPP433-3β: Molecular Mechanisms of Action and Efficacy in AR-Overexpressing Castration Resistant Prostate Cancer In Vitro and In Vivo Models” (Cells, 2022):
These are yes or no findings as the source states them, for the method shown. In cells and extracts the contact can be indirect. Some entries that bind do so weakly or less than the wild type.

By UniProt entry, the sequences of proteins in these tests, tags left out. Where a name states a change or a piece, a line headed by the entry shows the natural chain unless it says otherwise. Chains listed by the source or under a name are the forms on record and can include a tag or linker.
UniProt Q9UNE7: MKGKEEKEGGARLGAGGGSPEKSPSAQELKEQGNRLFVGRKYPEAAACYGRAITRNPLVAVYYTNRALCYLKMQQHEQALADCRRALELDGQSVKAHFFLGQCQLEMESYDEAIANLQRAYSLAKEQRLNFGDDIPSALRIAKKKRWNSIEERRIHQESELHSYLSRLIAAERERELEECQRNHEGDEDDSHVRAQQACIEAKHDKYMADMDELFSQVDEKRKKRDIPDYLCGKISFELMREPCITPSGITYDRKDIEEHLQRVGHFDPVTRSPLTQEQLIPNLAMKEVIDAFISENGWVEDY
UniProt Q00987: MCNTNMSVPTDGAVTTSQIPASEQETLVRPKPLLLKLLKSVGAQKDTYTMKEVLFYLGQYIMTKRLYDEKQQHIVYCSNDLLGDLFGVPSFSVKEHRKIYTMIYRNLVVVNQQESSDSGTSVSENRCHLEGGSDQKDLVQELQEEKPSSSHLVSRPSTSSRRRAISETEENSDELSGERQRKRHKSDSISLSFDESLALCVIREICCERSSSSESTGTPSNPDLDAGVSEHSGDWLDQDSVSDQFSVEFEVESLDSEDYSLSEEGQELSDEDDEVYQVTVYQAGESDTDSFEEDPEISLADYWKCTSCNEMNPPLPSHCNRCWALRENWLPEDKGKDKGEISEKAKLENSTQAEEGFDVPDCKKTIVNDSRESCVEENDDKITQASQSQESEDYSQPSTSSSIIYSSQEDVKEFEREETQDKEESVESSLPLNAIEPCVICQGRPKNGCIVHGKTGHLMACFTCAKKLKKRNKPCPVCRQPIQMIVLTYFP
androgen receptor splice variant AR-V7 (P10275-3, form named): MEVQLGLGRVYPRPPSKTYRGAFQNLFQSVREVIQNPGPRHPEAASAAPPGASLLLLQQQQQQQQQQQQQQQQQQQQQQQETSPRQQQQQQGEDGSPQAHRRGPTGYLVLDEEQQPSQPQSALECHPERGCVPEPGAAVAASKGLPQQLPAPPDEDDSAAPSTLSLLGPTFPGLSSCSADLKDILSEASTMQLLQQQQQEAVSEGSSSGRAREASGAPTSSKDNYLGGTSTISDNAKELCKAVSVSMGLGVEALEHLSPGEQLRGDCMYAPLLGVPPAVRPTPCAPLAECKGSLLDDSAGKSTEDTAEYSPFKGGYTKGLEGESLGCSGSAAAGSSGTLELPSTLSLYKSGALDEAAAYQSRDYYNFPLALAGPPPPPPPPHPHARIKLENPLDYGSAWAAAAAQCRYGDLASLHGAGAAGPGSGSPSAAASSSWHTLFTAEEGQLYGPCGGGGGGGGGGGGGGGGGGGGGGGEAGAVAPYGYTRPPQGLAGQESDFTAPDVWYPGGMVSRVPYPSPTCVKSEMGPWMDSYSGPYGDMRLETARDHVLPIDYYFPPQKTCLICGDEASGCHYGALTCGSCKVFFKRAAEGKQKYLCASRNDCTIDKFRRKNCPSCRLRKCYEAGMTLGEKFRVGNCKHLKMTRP

Legend:
[1] = target: E3 ligase CHIP (human (endogenous in CWR22Rv1 and LNCaP)) (UniProt Q9UNE7); experiment: co-IP; CWR22Rv1 and LNCaP cells hormone-starved for 48 h, treated with DMSO or VNPP433-3β (10 µM) for 4 h; lysate with 1 mg protein on Dynabeads Protein A carrying 3-5 µg antibody (anti-AR, anti-MDM2, anti-CHIP or anti-HSP90); immunoblot
[2] = target: E3 ligase MDM2 (human (endogenous in CWR22Rv1 and LNCaP)) (UniProt Q00987); experiment: as above

Substance: androgen receptor splice variant AR-V7 (from UniProt P10275-3 1-644)
- binding [1]: binds
- binding [2]: binds
